Laboratory results from patent US20250002575A1 (Genentech, published 2025).
Results are given in words; binding and its absence hold for the method and conditions named. Some binding calls cover weakened binding; strength is not graded here.

Target: T1, endogenous reduced human IL-33 in human samples (vitreous humor, serum) (human) (UniProt O95760)
T1 sequence (looked up): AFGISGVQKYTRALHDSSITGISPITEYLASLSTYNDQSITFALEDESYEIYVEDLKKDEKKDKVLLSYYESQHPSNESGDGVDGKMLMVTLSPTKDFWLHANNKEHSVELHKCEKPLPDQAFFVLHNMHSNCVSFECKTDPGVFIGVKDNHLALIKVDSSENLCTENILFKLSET
Experiment: immunodepletion of diluted human vitreous humor with antibody-conjugated beads; remaining reduced hIL-33 measured by iPCR

binding: binds
B1: rat IgG2a anti-human IL-33 clone 15.21C7 (antibody, V domains shown)
VH: EVQLVESGGGLVQPGTSLKLSCVASGFTFSDFWMSWVRQTPGKTMEWIADIKNDGSHTKYAPSLQNRFTISRDNAKNTLYLEVTDVRSEDTATYYCTRVGGTYTAYYWGHGVMVTVSS
VL: DIQMTQTPSSMPASLGERVTLSCRTSQGINTYLNWYQQKPDGTITPLIHYTSNLESGVPSRFSGSGFGTDYFLTISSLEPEDFAMYFCQQYASSPWTFGGGTKLELKK
notes: also called rat anti-reduced hIL-33 15.21C7 IgG2a
